Data published in publication PMC10481494.
These are yes or no findings as the source states them, for the method shown. In cells and extracts the contact can be indirect. Some binding calls cover weakened binding; strength is not graded here.

Chains of the proteins cited; added tags and fusions are not shown.
UniProt Q61037: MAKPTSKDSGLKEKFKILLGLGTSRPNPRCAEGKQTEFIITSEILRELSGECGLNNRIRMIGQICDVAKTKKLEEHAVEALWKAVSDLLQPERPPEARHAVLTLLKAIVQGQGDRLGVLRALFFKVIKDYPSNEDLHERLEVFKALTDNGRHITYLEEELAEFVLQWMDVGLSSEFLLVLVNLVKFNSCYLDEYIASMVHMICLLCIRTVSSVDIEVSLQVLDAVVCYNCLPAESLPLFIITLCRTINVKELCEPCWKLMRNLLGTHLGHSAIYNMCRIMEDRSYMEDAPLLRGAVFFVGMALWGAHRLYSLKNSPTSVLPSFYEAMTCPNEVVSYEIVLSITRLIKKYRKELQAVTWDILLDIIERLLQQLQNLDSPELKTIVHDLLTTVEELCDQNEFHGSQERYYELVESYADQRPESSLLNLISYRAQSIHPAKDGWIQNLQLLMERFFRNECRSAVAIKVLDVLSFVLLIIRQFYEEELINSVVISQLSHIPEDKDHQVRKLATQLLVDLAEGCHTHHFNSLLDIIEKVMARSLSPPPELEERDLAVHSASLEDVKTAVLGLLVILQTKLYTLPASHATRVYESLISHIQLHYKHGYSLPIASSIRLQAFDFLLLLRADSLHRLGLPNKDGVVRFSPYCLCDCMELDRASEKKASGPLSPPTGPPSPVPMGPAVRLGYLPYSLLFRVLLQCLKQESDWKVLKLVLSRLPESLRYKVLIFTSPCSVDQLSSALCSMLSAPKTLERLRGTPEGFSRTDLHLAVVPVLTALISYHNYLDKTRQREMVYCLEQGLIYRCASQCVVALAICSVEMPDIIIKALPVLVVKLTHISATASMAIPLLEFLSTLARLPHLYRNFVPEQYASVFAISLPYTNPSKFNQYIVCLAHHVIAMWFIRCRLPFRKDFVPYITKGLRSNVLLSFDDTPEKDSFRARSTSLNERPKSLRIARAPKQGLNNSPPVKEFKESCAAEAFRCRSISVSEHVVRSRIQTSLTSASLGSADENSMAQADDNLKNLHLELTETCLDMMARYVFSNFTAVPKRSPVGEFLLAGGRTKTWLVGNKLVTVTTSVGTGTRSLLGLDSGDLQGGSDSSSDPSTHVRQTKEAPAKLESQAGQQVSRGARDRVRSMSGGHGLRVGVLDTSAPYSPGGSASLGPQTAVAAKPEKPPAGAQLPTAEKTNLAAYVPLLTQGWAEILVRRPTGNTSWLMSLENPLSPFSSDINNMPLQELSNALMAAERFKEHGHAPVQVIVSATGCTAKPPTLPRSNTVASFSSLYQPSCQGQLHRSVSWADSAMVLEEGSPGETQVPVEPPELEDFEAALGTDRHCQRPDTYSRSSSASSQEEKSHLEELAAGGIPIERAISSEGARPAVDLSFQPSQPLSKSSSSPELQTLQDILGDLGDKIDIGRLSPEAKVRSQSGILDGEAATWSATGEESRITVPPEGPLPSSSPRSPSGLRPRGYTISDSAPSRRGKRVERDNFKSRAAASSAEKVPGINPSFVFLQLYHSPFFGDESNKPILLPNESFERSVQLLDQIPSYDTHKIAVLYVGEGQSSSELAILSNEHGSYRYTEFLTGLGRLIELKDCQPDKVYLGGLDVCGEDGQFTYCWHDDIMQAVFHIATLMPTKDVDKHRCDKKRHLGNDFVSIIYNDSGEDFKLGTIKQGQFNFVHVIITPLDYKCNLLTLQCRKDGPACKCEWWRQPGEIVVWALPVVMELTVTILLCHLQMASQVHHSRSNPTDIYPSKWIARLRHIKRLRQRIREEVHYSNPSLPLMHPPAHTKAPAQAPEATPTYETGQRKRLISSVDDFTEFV

Target: T1, endogenous SIRT1 of BV2 microglial cells (mouse (endogenous in BV2)) (UniProt Q923E4)
T1 sequence: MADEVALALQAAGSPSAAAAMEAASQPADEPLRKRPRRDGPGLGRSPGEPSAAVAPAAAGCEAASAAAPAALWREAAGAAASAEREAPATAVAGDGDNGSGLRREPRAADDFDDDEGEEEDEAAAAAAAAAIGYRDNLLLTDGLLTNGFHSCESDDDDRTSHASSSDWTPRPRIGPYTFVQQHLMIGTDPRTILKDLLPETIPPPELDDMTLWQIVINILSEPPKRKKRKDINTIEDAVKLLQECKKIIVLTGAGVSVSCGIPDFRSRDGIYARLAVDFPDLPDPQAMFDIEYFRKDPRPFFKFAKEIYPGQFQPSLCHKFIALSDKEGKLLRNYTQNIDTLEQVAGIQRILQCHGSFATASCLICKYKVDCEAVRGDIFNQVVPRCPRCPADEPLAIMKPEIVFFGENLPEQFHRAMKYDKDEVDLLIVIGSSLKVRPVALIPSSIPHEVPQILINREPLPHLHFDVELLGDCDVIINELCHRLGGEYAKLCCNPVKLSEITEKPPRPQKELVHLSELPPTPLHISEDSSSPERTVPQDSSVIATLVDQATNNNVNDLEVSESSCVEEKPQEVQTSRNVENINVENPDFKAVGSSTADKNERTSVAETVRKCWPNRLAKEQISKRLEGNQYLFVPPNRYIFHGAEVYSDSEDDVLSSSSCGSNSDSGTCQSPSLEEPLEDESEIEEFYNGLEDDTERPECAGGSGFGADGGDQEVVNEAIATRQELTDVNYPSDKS
Experiment: co-IP; endogenous proteins in BV2 cell RIPA lysate; anti-TSC2 or anti-Sirt1 antibody overnight at 4 °C, protein A/G sepharose beads 3 h, five washes with RIPA buffer; immunoblot; IgG IP as control

Substance: endogenous TSC2 of BV2 microglial cells (from UniProt Q61037 1-1814)
- binding: binds
